The target of this assay is EMS16, C-type lectin-like protein from Echis multisquamatus venom (Echis multisquamatus) (UniProt Q7T2Q1). Description: cell adhesion assay; 10 µg/mL CTL (Vixapatin or EMS16) immobilised overnight at 4 °C on 96-well plate in PBS; blocked with 1% BSA in HBSS with 5 mM MgCl2; CMFDA-labelled α2K562 cells (1 × 10^5 cells/well) added with or without monoclonal anti-integrin antibodies, 37 °C, 60 min; adherent cells counted by fluorescence; only the target purified.

Sequences of proteins named here, by UniProt entry; tags and fusion partners are left off. A change or cut given only in a name is not applied to a line headed by its entry.
UniProt Q7T2Q1: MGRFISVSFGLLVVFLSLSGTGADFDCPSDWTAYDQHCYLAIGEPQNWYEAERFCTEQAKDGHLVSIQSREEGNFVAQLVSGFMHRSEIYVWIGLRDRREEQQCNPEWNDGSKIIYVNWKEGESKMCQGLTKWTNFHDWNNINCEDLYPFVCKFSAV
UniProt P17301: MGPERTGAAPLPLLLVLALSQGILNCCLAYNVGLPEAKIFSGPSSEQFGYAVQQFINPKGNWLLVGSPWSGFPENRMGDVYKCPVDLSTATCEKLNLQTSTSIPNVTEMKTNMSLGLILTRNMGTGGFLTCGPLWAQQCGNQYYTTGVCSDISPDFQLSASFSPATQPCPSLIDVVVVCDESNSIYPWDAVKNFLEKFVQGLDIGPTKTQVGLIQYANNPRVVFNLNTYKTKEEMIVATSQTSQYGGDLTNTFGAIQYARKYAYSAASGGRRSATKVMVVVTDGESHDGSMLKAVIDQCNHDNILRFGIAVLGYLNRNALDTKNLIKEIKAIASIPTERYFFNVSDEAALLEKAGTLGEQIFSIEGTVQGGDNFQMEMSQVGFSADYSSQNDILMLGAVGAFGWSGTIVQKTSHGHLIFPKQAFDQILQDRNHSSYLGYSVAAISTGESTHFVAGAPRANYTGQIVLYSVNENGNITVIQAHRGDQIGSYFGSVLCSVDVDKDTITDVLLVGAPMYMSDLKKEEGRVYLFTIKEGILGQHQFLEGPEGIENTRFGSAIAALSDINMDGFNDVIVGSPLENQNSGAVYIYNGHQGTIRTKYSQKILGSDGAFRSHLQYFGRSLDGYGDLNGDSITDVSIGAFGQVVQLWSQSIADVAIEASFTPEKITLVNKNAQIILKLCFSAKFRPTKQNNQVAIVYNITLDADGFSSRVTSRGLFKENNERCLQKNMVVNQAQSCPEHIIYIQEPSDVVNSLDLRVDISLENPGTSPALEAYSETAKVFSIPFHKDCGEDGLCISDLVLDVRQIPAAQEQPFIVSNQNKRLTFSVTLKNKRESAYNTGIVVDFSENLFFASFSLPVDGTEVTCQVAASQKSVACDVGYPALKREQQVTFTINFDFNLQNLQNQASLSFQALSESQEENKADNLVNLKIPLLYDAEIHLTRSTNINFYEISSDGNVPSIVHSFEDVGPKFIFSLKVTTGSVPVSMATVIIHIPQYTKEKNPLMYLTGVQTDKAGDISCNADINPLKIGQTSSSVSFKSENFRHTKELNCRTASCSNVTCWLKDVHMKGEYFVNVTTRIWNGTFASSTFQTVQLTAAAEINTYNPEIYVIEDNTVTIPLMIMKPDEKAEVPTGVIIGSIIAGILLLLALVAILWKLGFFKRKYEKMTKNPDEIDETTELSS

Results are given in words; binding and its absence hold for the method and conditions named. Some results given as binding are weak or reduced against the parent protein; the word gives no strength.

Take “α2β1 integrin on K562 cells transfected with the α2 integrin subunit (from UniProt P17301 30-1181; P05556 21-798) (receptor)”: the binding result is “binds”.

For the origin of these results see PMC3496993.
